Data as given in PubChem BioAssay AID652259 (Drosophila RNAi Screening Center, 2013).

Test: 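Genome-wide hunt for genes that control Wingless pathway activity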 (primary screen)
System: Drosophila clone 8 imaginal disc epithelial cells
Reagent: long dsRNA against Drosophila genes
Challenge: pathway stimulated by co-transfected Wingless expression plasmid
Measured: 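Firefly luciferase from a tcf-site Wingless reporter, measured alongside co-transfected Renilla luciferase that tracks transfection; pathway stimulated by a Wingless plasmid; the firefly-to-Renilla ratio is not deposited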
Scale: firefly reporter light: higher = more Wg reporter light, before normalisation; Renilla control light: higher = more transfected or surviving cells
Rule for the call: 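a knock-down is a candidate when at least two out of four statistical tests show it departing from its plate mean; one test alone signals a weak candidate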
Calls: active = candidate regulator (raises or lowers reporter); inactive = not a candidate
In all, the deposit lists about 22,000 reagents; shown is an unselected part of those that have a named target and a result. In the full data, 233 (1.1%) are marked active. 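Light values are raw, unnormalised plate reads; the ratio scores behind the reporter calls were not deposited.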 Unmarked entries are inactive. Names joined by + are all predicted targets of the reagent. Not given: the amount of reagent, the time to read-out, the dose of the treatment.

| target gene | DRSC id | reporter change call, replicate 1 | firefly reporter light, replicate 1 | firefly reporter light, replicate 2 | Renilla control light, replicate 1 | Renilla control light, replicate 2 |
| --- | --- | --- | --- | --- | --- | --- |
| CngA (GeneID 36806) | DRSC06580 | Wg reporter activity lowered (active) | 1684 | – | 1442 | – |
| CngA (GeneID 36806) | DRSC07362 | – | 8305 | – | 2362 | – |
| pasi1 (GeneID 42139) | DRSC16299 | – | 21064 | 9.82e5 | 6167 | 5.16e5 |
| pasi1 (GeneID 42139) | DRSC22385 | – | 8.34e5 | 8.30e5 | 4.17e5 | 4.01e5 |
| Drep3 (GeneID 36292) | DRSC06312 | – | 11674 | – | 3884 | – |
| Drep3 (GeneID 36292) | DRSC07529 | – | 4614 | – | 1205 | – |
| Drep3 (GeneID 36292) | DRSC22344 | – | 5.93e5 | 5.72e5 | 2.22e5 | 2.23e5 |
| Mlc-c (GeneID 31474) | DRSC18683 | – | 2784 | 6792 | 793 | 1866 |
| Diedel (GeneID 43474) | DRSC14317 | – | 7677 | – | 3414 | – |
| CG32650 (GeneID 326227) | DRSC19899 | – | 2589 | 7048 | 776 | 1433 |
| Fim (GeneID 32721) | DRSC20243 | – | 3963 | 4624 | 1283 | 2717 |
| CG5742 (GeneID 37072) | DRSC06949 | – | 20563 | – | 5520 | – |
| CG31229 (GeneID 318636) | DRSC13309 | – | 4432 | – | 1273 | – |
| SerT (GeneID 37895) | DRSC04655 | – | 3736 | 9125 | 617 | 1577 |
| beat-Ib (GeneID 34939) | DRSC03490 | – | 2125 | 6487 | 816 | 2643 |
| Spt6 (GeneID 44000) | DRSC18836 | – | 1424 | 5281 | 425 | 1588 |
| Ctr1C (GeneID 43668) | DRSC15089 | – | 9910 | – | 3896 | – |
| His-Psi:CR31754 (GeneID 3772639) | DRSC22051 | Wg reporter activity raised | 8.85e5 | 7.94e5 | 36816 | 33102 |
| asrij (GeneID 37637) | DRSC04175 | – | 3437 | 7177 | 786 | 2560 |
| CG11037 (GeneID 40317) | DRSC11631 | – | 17444 | – | 6678 | – |
| fra (GeneID 36377) | DRSC07621 | – | 5788 | – | 2345 | – |
| Mst27D (GeneID 319019) | DRSC00967 | – | 22688 | – | 8532 | – |
| CG5342 (GeneID 41389) | DRSC15776 | – | 12761 | – | 2216 | – |
| Rab7 (GeneID 42841) | DRSC16810 | – | 2707 | 6789 | 1125 | 2001 |
| Spase22-23 (GeneID 42885) | DRSC15857 | – | 14780 | – | 13632 | – |
| Rab6 (GeneID 34636) | DRSC03404 | – | 8178 | – | 2568 | – |
| CG34129 (GeneID 43181) | DRSC15960 | – | 20466 | – | 21974 | – |
| mtt (GeneID 35832) | DRSC05106 | – | 33959 | – | 9786 | – |
| mtt (GeneID 35832) | DRSC05107 | – | 13178 | – | 9200 | – |
| mtt (GeneID 35832) | DRSC06753 | – | 2660 | 4690 | 1212 | 2441 |
| mtt (GeneID 35832) | DRSC07235 | – | 3206 | 6208 | 965 | 2615 |
| COX4 (GeneID 35279) | DRSC02091 | – | 5830 | – | 1696 | – |
| Cpr92A (GeneID 42333) | DRSC16000 | – | 22033 | – | 6307 | – |
| CG7990 (GeneID 32909) | DRSC19296 | – | 4972 | – | 1769 | – |
| CG7990 (GeneID 32909) | DRSC20069 | Wg reporter activity raised (active) | 2870 | 7174 | 329 | 1073 |
| CG13676 (GeneID 38906) | DRSC10035 | – | 1680 | 7104 | 1556 | 3188 |
| RhoGEF2 (GeneID 36915) | DRSC07531 | – | 15445 | – | 4970 | – |
| ACXB (GeneID 53427) | DRSC00845 | – | 2243 | 4998 | 841 | 2482 |
| scyl (GeneID 39270) | DRSC11392 | – | 9097 | – | 3506 | – |
| loopin-1 (GeneID 36847) | DRSC06888 | – | 8788 | – | 3128 | – |
| snsl (GeneID 33696) | DRSC00543 | – | 3289 | 6729 | 1096 | 1104 |
| obst-B (GeneID 34336) | DRSC01987 | – | 10130 | – | 3021 | – |
| CPT2 (GeneID 38355) | DRSC08553 | – | 18679 | – | 6473 | – |
| AhcyL2 (GeneID 42043) | DRSC14107 | – | 13385 | – | 3075 | – |
| CG34288 (GeneID 5740644) | DRSC13564 | – | 4291 | – | 2181 | – |
| Rpp14b (GeneID 43578) | DRSC15063 | – | 7664 | – | 3459 | – |
| CG7342 (GeneID 42335) | DRSC16230 | – | 2400 | 7280 | 1125 | 2185 |
| edl (GeneID 37149) | DRSC06516 | – | 14005 | – | 5240 | – |
| Sf3b2 (GeneID 33514) | DRSC00619 | – | 10258 | – | 3004 | – |
| Osi20 (GeneID 40777) | DRSC12568 | – | 21108 | – | 4881 | – |
| myo (GeneID 43811) | DRSC17174 | – | 2459 | 6225 | 983 | 2513 |
| CG3734 (GeneID 42318) | DRSC15509 | – | 14353 | – | 2165 | – |
| mRpL39 (GeneID 39627) | DRSC10255 | – | 6472 | – | 2098 | – |
| Dus4 (GeneID 35179) | DRSC02066 | – | 10147 | – | 2538 | – |
| MnM (GeneID 38384) | DRSC08423 | – | 7543 | – | 2843 | – |
| Plod (GeneID 39265) | DRSC10601 | – | 2096 | – | 1593 | – |
| Plod (GeneID 39265) | DRSC10602 | – | 4786 | – | 1818 | – |
| CG12547 (GeneID 3355145) | DRSC07759 | – | 4698 | – | 2296 | – |
| CG6686 (GeneID 34608) | DRSC02979 | – | 13298 | – | 1953 | – |
| Dtg (GeneID 41558) | DRSC15998 | – | 7236 | – | 3015 | – |
| cd (GeneID 42681) | DRSC16157 | – | 12311 | – | 12362 | – |
| Nup160 + RfC38 | DRSC01997 | – | 4790 | – | 2306 | – |
| CR18275 + CG13373 | DRSC17900 | – | 17316 | – | 12566 | – |
| CG16820 (GeneID 34730) | DRSC02522 | – | 15125 | – | 3520 | – |
| Cda5 (GeneID 33158) | DRSC00003 | – | 27677 | – | 16308 | – |
| Cda5 (GeneID 33158) | DRSC00529 | – | 2422 | 6992 | 1105 | 2873 |
| Cda5 (GeneID 33158) | DRSC00532 | – | 2813 | 8089 | 1159 | 3296 |
| Cda5 (GeneID 33158) | DRSC21330 | – | 4.91e5 | 3.54e5 | 5.40e5 | 1.71e5 |
| Lis-1 (GeneID 36791) | DRSC07459 | – | 9130 | – | 3066 | – |
| Tmf (GeneID 31629) | DRSC18368 | – | 28603 | – | 8545 | – |
| nord (GeneID 37882) | DRSC04210 | – | 2026 | 7650 | 571 | 2500 |
| nord (GeneID 37882) | DRSC04361 | – | 2280 | 7664 | 434 | 1767 |
| CG12986 (GeneID 32759) | DRSC19506 | – | 18906 | – | 10820 | – |

Ordered by “firefly reporter light, replicate 1” (highest first): some entries from above.
| target gene | DRSC id | reporter change call, replicate 1 | firefly reporter light, replicate 1 | firefly reporter light, replicate 2 | Renilla control light, replicate 1 | Renilla control light, replicate 2 |
| --- | --- | --- | --- | --- | --- | --- |
| CG6686 (GeneID 34608) | DRSC02979 | – | 13298 | – | 1953 | – |
| cd (GeneID 42681) | DRSC16157 | – | 12311 | – | 12362 | – |
| Dtg (GeneID 41558) | DRSC15998 | – | 7236 | – | 3015 | – |
| Plod (GeneID 39265) | DRSC10602 | – | 4786 | – | 1818 | – |
| CG12547 (GeneID 3355145) | DRSC07759 | – | 4698 | – | 2296 | – |
